Hit rate of the full screen: of about 390,000 compounds, about 4,000 (1%) were called active. Inconclusive results, whose numbers are uncertain, are shown with a selection of clear calls. Calls follow the shape of the dose curve; as a rule, active = well fitted inhibition curve with a large enough effect; inconclusive = small, poorly fitted or top-dose-only effect, or another doubt; inactive = no such curve, though single readings can be large or run the other way. Potencies beside an inconclusive call are fits to weak or partial responses and may not hold up.
Target: DNA polymerase iota (Homo sapiens) (UniProt Q9UNA4)
Test: qHTS for Inhibitors of Polymerase Iota
Conditions: Pol iota fluorescent replication assay, 10 min; series mostly up to 115 µM
Method in brief: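 Pol iota at 10 nM preincubated 15 min with compounds at room temperature; reaction started with fluorescent substrate, 50 nM final. Fluorescence read kinetically at 0 and 10 min; buffer-only wells as negative control.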
Potency is read from the fitted curve at half-maximal effect.

Chains of the proteins cited; added tags and fusions are not shown. Lines headed by an entry give the natural chain unless they say otherwise; changes in a name come on top.
UniProt Q9UNA4: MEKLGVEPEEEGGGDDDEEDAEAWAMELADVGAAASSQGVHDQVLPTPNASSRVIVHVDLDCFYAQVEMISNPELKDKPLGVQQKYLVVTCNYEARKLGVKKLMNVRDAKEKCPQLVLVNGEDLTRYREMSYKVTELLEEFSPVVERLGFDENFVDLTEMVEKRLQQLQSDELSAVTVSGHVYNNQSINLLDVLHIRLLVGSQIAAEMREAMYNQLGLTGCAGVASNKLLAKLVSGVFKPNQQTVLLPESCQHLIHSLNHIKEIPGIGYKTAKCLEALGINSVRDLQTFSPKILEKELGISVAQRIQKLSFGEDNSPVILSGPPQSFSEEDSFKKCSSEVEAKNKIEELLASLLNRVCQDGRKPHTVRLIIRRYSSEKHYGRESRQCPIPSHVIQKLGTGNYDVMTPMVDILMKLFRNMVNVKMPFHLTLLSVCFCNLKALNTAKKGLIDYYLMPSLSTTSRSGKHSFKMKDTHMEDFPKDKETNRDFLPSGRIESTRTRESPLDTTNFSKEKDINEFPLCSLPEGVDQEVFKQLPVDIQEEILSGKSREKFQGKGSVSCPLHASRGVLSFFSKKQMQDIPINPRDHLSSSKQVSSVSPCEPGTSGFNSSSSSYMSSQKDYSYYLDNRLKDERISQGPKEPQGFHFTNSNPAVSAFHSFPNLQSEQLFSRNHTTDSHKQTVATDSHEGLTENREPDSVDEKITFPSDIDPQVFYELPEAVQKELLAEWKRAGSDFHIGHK

Compound | Potency
O=C(CSc1nnnn1-c1ccc(F)cc1)c1ccc(O)c(O)c1 | inconclusive: 63.1 µM [inhibitor, partial curve, poor fit]
Cc1noc(C)c1S(=O)(=O)Nc1ccc(C(=O)N2CCN(c3ccc(F)cc3)CC2)cc1 | active: 79.4 µM
O=C(O)c1ccccc1C(=O)N1CC=C(c2ccccc2)CC1 | inconclusive: 8.91 µM [inhibitor, full curve, poor fit]
N#CC1=C(N)N(c2ccc(Cl)cc2)C2=C(C(=O)CCC2)C1c1cc(CN2CCOCC2)cs1 (configuration not stated) | inconclusive: 89.1 µM [inhibitor, partial curve, poor fit]
COc1cc(NS(=O)(=O)c2cc(Br)cc3c2N(C(C)=O)C(C)C3)cc(OC)c1 (configuration not stated) | inactive
Cc1nnc2ccc(-c3ccc(NC(=O)c4ccco4)cc3)nn12 | inactive
COc1cc(OC)c(OC)cc1/C=C/c1cc[n+](C)c2ccccc12 | active: 70.8 µM
CN(C)CCNC(=O)c1cccc2ccc(-c3ccc(-c4ccccc4)cc3)nc12 | inactive
O=C(c1ccccc1)c1nn(-c2ccccc2)c(=O)cc1C(F)(F)F | inconclusive: 50.1 µM [inhibitor, partial curve, poor fit]
O=C1CC(c2ccccc2)CC(O)=C1C=NCCN1CCN(Cc2ccccc2)CC1 (configuration not stated) | inconclusive: 3.16 µM [inhibitor, full curve, poor fit]
O=C(Nc1ccccc1)C1=C(O)CC(c2ccco2)CC1=Nc1ccccc1 (configuration not stated) | inconclusive: 39.8 µM [inhibitor, single point]
CCOc1ccc(CCNC(=O)C2CCN(C(=O)N(C)C)CC2)cc1OCC | inactive
O=C(Nc1ccccc1F)c1cc(-c2ccco2)nc2ccccc12 | inconclusive: 22.4 µM [inhibitor, partial curve, poor fit]
O=C(Cn1ncc(Cl)c(Cl)c1=O)NC1CCS(=O)(=O)C1 (configuration not stated) | active: 14.1 µM
C(=C\c1ccnc2ccccc12)/c1ccc2ccccc2n1 | inactive
COC(=O)c1ccc(CSc2nc3ccccc3c(=O)n2Cc2ccco2)o1 | inconclusive: 31.6 µM [inhibitor, partial curve]
Cc1cc(=O)oc2c1c(C)nn2-c1cccc(Cl)c1 | inconclusive: 100 µM [inhibitor, single point]
COc1ccccc1CNC(=O)COC(=O)c1cc(-c2ccco2)nc2ccccc12 | active: 7.08 µM
O=C(c1cc(-c2ccco2)on1)N1CCc2ccccc2C1 | inconclusive: 14.1 µM [inhibitor, full curve, poor fit]
COc1ccc(C(C)NC(=O)CN(c2cc(OC)ccc2OC)S(=O)(=O)c2ccccc2)cc1 (configuration not stated) | inconclusive: 56.2 µM [inhibitor, partial curve, poor fit]
CCN1CCCC1CNC(=O)c1cc2c(-c3ccc(Cl)cc3)nn(C)c2s1 (configuration not stated) | inconclusive: 39.8 µM [inhibitor, partial curve, poor fit]

Compound | Potency
CC1=NN(c2nc(-c3ccc(C)cc3)cs2)C(=O)C1N=Nc1ccc(C(N)=O)cc1 (configuration not stated) | inactive
NS(=O)(=O)c1cccc(NC(=O)COC(=O)/C=C/c2ccco2)c1 | inconclusive: 44.7 µM [inhibitor, partial curve]
CCNC(=S)NCC | inconclusive: 89.1 µM [inhibitor, single point]
O=C(Nc1ccccc1C(=O)Nc1ccccn1)c1cccc([N+](=O)[O-])c1 | inconclusive: 15.8 µM [inhibitor, full curve, poor fit]
O=C(COC(=O)c1ccccc1)NCc1ccco1 | active: 28.2 µM
Fc1cccc(CSc2nc3ncc(Cl)cc3[nH]2)c1 | active: 70.8 µM
O=C(O)c1nn(Cc2ncc(-c3cccc(Cl)c3)o2)c(=O)c2ccccc12 | inconclusive: 12.6 µM [inhibitor, partial curve, poor fit]
COc1ccc(NC(=O)CCCS(=O)(=O)c2nc(-c3ccccc3OC)cc(C(F)(F)F)n2)c(OC)c1 | inconclusive: 15.8 µM [inhibitor, partial curve, poor fit]
CCOC(=O)C1=C(C)N=c2s/c(=C/c3ccco3)c(=O)n2C1c1cccc(OC)c1 (configuration not stated) | inconclusive: 15.8 µM [inhibitor, partial curve, poor fit]
CC1(c2nnc(-c3ccc(F)cc3)o2)CC(c2ccc(F)cc2)=NO1 (configuration not stated) | inconclusive: 11.2 µM [inhibitor, partial curve, poor fit]
COc1ccccc1NCc1nnc(SCC(=O)N/N=C/c2ccco2)n1-c1ccc(Cl)cc1Cl | inconclusive: 14.1 µM [inhibitor, partial curve, poor fit]
C=CCn1c(SCC(=O)c2ccc(O)c(O)c2)nnc1-c1ccc(C)cc1 | inconclusive: 56.2 µM [inhibitor, partial curve, poor fit]
Cn1c(=O)c2c(ncn2CCO)n(C)c1=O | inconclusive: 22.4 µM [inhibitor, single point]
O=C(Nc1ccccc1)N1CCCC1 | inconclusive: 112 µM [inhibitor, partial curve, poor fit]
CCCSc1nc2sc3c(c2c(=O)n1-c1ccc(C)cc1)CCCC3 | inconclusive: 89.1 µM [inhibitor, single point]
NNC(=S)Nc1ccc(S(=O)(=O)N2CCCCC2)cc1 | inconclusive: 20 µM [inhibitor, partial curve, poor fit]
N#Cc1nc(NCC(F)F)nc(Nc2cc(F)cc(F)c2)n1 | inactive
COc1ccc(C(c2nnnn2Cc2cccs2)N2CCN(c3ccccc3F)CC2)cc1OC (configuration not stated) | inconclusive: 39.8 µM [inhibitor, single point]
COc1ccc(OC)c(CNC(=O)c2cc3c(=O)oc4ccc(C)cc4c3s2)c1 | inconclusive: 89.1 µM [inhibitor, single point]
CCOC(=O)/C(=C\c1ccccc1)C(=O)c1cc(C(C)=O)c(Nc2ccccc2)s1 | inconclusive: 20 µM [inhibitor, partial curve, poor fit]
Brc1ccc(CN2CCc3nc(Nc4ccccc4)ncc3C2)s1 | inconclusive: 89.1 µM [inhibitor, single point]

Ordered by SMILES length (rising): some entries from above
Compound | Potency
CCNC(=S)NCC | inconclusive: 89.1 µM [inhibitor, single point]
Cn1c(=O)c2c(ncn2CCO)n(C)c1=O | inconclusive: 22.4 µM [inhibitor, single point]
C(=C\c1ccnc2ccccc12)/c1ccc2ccccc2n1 | inactive
O=C(c1cc(-c2ccco2)on1)N1CCc2ccccc2C1 | inconclusive: 14.1 µM [inhibitor, full curve, poor fit]
O=C(Nc1ccccc1F)c1cc(-c2ccco2)nc2ccccc12 | inconclusive: 22.4 µM [inhibitor, partial curve, poor fit]
O=C(Cn1ncc(Cl)c(Cl)c1=O)NC1CCS(=O)(=O)C1 (configuration not stated) | active: 14.1 µM
O=C(c1ccccc1)c1nn(-c2ccccc2)c(=O)cc1C(F)(F)F | inconclusive: 50.1 µM [inhibitor, partial curve, poor fit]
CCN1CCCC1CNC(=O)c1cc2c(-c3ccc(Cl)cc3)nn(C)c2s1 (configuration not stated) | inconclusive: 39.8 µM [inhibitor, partial curve, poor fit]
O=C1CC(c2ccccc2)CC(O)=C1C=NCCN1CCN(Cc2ccccc2)CC1 (configuration not stated) | inconclusive: 3.16 µM [inhibitor, full curve, poor fit]
O=C(O)c1nn(Cc2ncc(-c3cccc(Cl)c3)o2)c(=O)c2ccccc12 | inconclusive: 12.6 µM [inhibitor, partial curve, poor fit]
COc1cc(NS(=O)(=O)c2cc(Br)cc3c2N(C(C)=O)C(C)C3)cc(OC)c1 (configuration not stated) | inactive
N#CC1=C(N)N(c2ccc(Cl)cc2)C2=C(C(=O)CCC2)C1c1cc(CN2CCOCC2)cs1 (configuration not stated) | inconclusive: 89.1 µM [inhibitor, partial curve, poor fit]

From PubChem BioAssay AID588590 (National Center for Advancing Translational Sciences (NCATS), 2011)
